Source: PubChem BioAssay AID588361 (Broad Institute, 2011)
The list shows a part of the results. Results with a measured potency or affinity are listed apart. The source made no clear call on entries shown without one.

Protein sequences, listed by entry. Tags and fused reporters are not part of them. Lines headed by an entry give the natural chain unless they say otherwise; changes in a name come on top.
UniProt P49840: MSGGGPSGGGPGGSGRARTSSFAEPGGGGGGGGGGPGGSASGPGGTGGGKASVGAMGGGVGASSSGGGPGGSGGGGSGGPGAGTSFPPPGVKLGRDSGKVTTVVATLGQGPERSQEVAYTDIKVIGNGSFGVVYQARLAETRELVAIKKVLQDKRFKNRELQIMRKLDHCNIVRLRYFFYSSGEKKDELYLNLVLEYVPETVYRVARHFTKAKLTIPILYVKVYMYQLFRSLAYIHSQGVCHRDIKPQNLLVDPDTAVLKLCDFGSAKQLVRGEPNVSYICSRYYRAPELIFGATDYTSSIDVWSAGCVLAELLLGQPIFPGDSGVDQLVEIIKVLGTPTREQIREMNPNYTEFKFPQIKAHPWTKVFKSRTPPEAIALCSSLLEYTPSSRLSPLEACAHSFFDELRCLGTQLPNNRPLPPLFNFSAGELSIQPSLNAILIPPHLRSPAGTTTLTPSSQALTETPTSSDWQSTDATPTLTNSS

Target: Glycogen synthase kinase-3 alpha (Homo sapiens) (UniProt P49840)
Assay: GSK3A kinase inhibitor dose-response confirmation, cell-free mobility-shift peptide conversion assay (AID 588361)
Conditions: GST-GSK3a, peptide conversion microfluidic mobility shift, 60 min; at 35 µM (top of the series)

Cc1ccc(-n2c(C)c([N+](=O)[O-])c3ccc(O)cc32)cc1
activity change, negative = inhibition: -50.1%
